The values that follow come from PubChem BioAssay AID252 (DTP/NCI, 2004).

The subject of the assay is BDF1 mice, intracerebral L1210 leukemia, survival T/C. Put plainly: NCI In Vivo Anticancer Drug Screen. Data for tumor model L1210 Leukemia (intracerebral) in B6D2F1 (BDF1) mice. The settings on record: higher T/C = longer survival. Put shortly:
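Readout is the T/C ratio: survival of compound-treated animals over that of vehicle-treated controls, in mice bearing transplantable tumour.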

Structures are written as SMILES. The list is a part of this screen's results and no random one: it gathers tests that were run many times, whatever their T/C, doses with no T/C, and many T/C values between a quarter and a half above the control. Further doses and runs are listed elsewhere. T/C is the treated group as % of the vehicle group. Some doses have a count of surviving animals in place of a T/C: the source holds a T/C of zero for them, seemingly a mark for toxic or unscored doses. Some doses without a T/C left all or most animals alive at the check, yet need not have been tolerated: the source hardly ever lists a survival T/C far under the control, and the zero likely stands for such cases as well. Counts of survivors are from the toxicity check (mostly the fifth day) where no day follows; animals may have died later. Schedule codes are those of the source, taken here to give the interval after Q, in days (D) or hours (H), and the number of doses after X. Some schedule codes hold Z or #, which are not explained here. For survival time, this PubChem deposit counts one and a half times the control or more as active, and values a quarter to a half above the control carry no call in these data; other NCI protocols may use other cut-offs. Some T/C values are followed by the survivors on the day toxicity was checked, most often the fifth; without a count, all were alive then. Some doses were run more than once; the results are listed from low to high.

Consider `CC(=O)OC1CCC(NC(=O)N(CCF)N=O)CC1` (configuration not stated), for which the T/C (T/C endpoint: mean survival time, dose: 16.0 mg/kg/injection, schedule: Q01DX001 (ip), vehicle: other) is 144 % of control. Also, the survivor count was 3 of 10 (T/C endpoint: mean survival time, dose: 48.0 mg/kg/injection, schedule: Q01DX001 (oral), vehicle: other); 2 of 10 (T/C endpoint: mean survival time, dose: 54.0 mg/kg/injection, schedule: Q01DX001 (ip), vehicle: other); 1 of 10 (T/C endpoint: mean survival time, dose: 72.0 mg/kg/injection, schedule: Q01DX001 (oral), vehicle: other); 1 of 10 (T/C endpoint: mean survival time, dose: 81.0 mg/kg/injection, schedule: Q01DX001 (ip), vehicle: other); 1 of 10 (T/C endpoint: mean survival time, dose: 108.0 mg/kg/injection, schedule: Q01DX001 (oral), vehicle: other); 1 of 10 (T/C endpoint: mean survival time, dose: 162.0 mg/kg/injection, schedule: Q01DX001 (oral), vehicle: other).

Regarding `CC[C@H]1CN2CCc3cc(OC)c(OC)cc3[C@@H]2C[C@@H]1C[C@H]1NCCc2cc(OC)c(OC)cc21`, the survivor count was 8 of 10 (T/C endpoint: mean survival time, dose: 16.0 mg/kg/injection, schedule: Q01DX009 (ip), vehicle: saline) and 0 of 10 (T/C endpoint: mean survival time, dose: 64.0 mg/kg/injection, schedule: Q08DX002 (ip), vehicle: saline).

For the compound `CCCCCCCCCCCCCCCC(=O)OCC1OC(n2ccc(N)nc2=O)C(O)C1O` (configuration not stated), the T/C (T/C endpoint: mean survival time, dose: 10.0 mg/kg/injection, schedule: Q01DX005 (ip), vehicle: other) is 125, 128, 131 % of control [9 of 10 alive]; the T/C (T/C endpoint: mean survival time, dose: 15.0 mg/kg/injection, schedule: Q01DX005 (ip), vehicle: other) is 134, 144, 145 % of control; the T/C (T/C endpoint: mean survival time, dose: 50.0 mg/kg/injection, schedule: Q01DX001 (ip), vehicle: other) is 136 % of control; the T/C (T/C endpoint: mean survival time, dose: 100.0 mg/kg/injection, schedule: Q01DX001 (ip), vehicle: other) is 142 and 143 % of control. The survivor count is 9 of 10 (T/C endpoint: median survival time, dose: 100.0 mg/kg/injection, schedule: Q01DX009 (ip), vehicle: saline with Tween-80); 8 of 10 (T/C endpoint: median survival time, dose: 200.0 mg/kg/injection, schedule: Q01DX009 (ip), vehicle: saline with Tween-80); 4 of 10 (T/C endpoint: median survival time, dose: 400.0 mg/kg/injection, schedule: Q01DX009 (ip), vehicle: saline with Tween-80).

In the case of `NC(Cc1ccc(N(CCCl)CCCl)cc1)C(=O)O` (configuration not stated), the T/C (T/C endpoint: mean survival time, dose: 18.0 mg/kg/injection, schedule: Q01DX001 (ip), vehicle: carboxymethylcellulose (CMC)) was 125 % of control.

Consider `O=NN(CCF)C(=O)NC1CCCCC1`, for which the T/C runs as follows: (T/C endpoint: mean survival time, dose: 13.0 mg/kg/injection, schedule: Q01DX001 (ip), vehicle: carboxymethylcellulose (CMC)) 132 % of control; (T/C endpoint: mean survival time, dose: 20.0 mg/kg/injection, schedule: Q01DX001 (ip), vehicle: carboxymethylcellulose (CMC)) 145 % of control. Also, the survivor count (T/C endpoint: mean survival time, dose: 54.0 mg/kg/injection, schedule: Q01DX001 (oral), vehicle: other) is on record as 5 of 10.

`O=NN(CCCl)C(=O)NC1[C@H](O)CCC[C@@H]1O` (some centres not stated): the T/C (T/C endpoint: mean survival time, dose: 6.0 mg/kg/injection, schedule: Q01DX001 (ip), vehicle: saline) was 137 % of control. For the same compound, the survivor count (T/C endpoint: mean survival time, dose: 33.0 mg/kg/injection, schedule: Q01DX001 (ip), vehicle: saline) is 8 of 10.

Take `O=NN(CCCl)C(=O)CCCCC(=O)N(CCCl)N=O`: the survivor count (T/C endpoint: mean survival time, dose: 150.0 mg/kg/injection, schedule: Q01DX001 (ip), vehicle: carboxymethylcellulose (CMC)) was 9 of 10.

In the case of `CCC(=O)NC1=C(N2CC2C)C(=O)C(NC(=O)CC)=C(N2CC2C)C1=O` (configuration not stated), the survivor count (T/C endpoint: mean survival time, dose: 50.0 mg/kg/injection, schedule: Q01DX009 (ip), vehicle: Klucel (hydroxypropylcellulose) (HPC)) was 1 of 6.

As for `Cc1ncc(CNC(=O)N(CCCl)N=O)c(N)n1`, the T/C runs as follows: (T/C endpoint: mean survival time, dose: 3.13 mg/kg/injection, schedule: Q01DX009 (ip), vehicle: saline) 125 % of control; (T/C endpoint: mean survival time, dose: 12.5 mg/kg/injection, schedule: Q01DX001 (ip), vehicle: saline) 125 % of control; (T/C endpoint: mean survival time, dose: 25.0 mg/kg/injection, schedule: Q01DX009 (ip), vehicle: saline) 133 % of control [5 of 6 alive]. The survivor count (T/C endpoint: mean survival time, dose: 50.0 mg/kg/injection, schedule: Q01DX009 (ip), vehicle: saline) was 5 of 6.

On to `O=NN(CCCl)C(=O)Nc1ccc(NC(=O)N(CCCl)N=O)cc1`, for which the T/C reads like this: (T/C endpoint: mean survival time, dose: 150.0 mg/kg/injection, schedule: Q01DX009 (ip), vehicle: carboxymethylcellulose (CMC)) 128 % of control; (T/C endpoint: mean survival time, dose: 160.0 mg/kg/injection, schedule: Q01DX001 (ip), vehicle: carboxymethylcellulose (CMC)) 131 and 137 % of control; (T/C endpoint: mean survival time, dose: 240.0 mg/kg/injection, schedule: Q01DX001 (ip), vehicle: carboxymethylcellulose (CMC)) 135 and 147 % of control.

Take `O=C(Nc1ccc(C2=NCCCN2)cc1)c1ccc(C(=O)Nc2ccc(C3=NCCCN3)cc2)cc1`: for the setting “T/C endpoint: mean survival time, dose: 10.0 mg/kg/injection, schedule: Q01DX Z (ip), vehicle: carboxymethylcellulose (CMC)”, the T/C is 125 % of control. The survivor count is on record as 1 of 6 (T/C endpoint: mean survival time, dose: 20.0 mg/kg/injection, schedule: Q01DX Z (ip), vehicle: carboxymethylcellulose (CMC)); 1 of 6 (T/C endpoint: mean survival time, dose: 62.0 mg/kg/injection, schedule: Q01DX Z (ip), vehicle: carboxymethylcellulose (CMC)); 0 of 6 (T/C endpoint: mean survival time, dose: 125.0 mg/kg/injection, schedule: Q01DX Z (ip), vehicle: carboxymethylcellulose (CMC)); 0 of 6 (T/C endpoint: mean survival time, dose: 250.0 mg/kg/injection, schedule: Q01DX Z (ip), vehicle: carboxymethylcellulose (CMC)); 0 of 6 (T/C endpoint: mean survival time, dose: 500.0 mg/kg/injection, schedule: Q01DX Z (ip), vehicle: carboxymethylcellulose (CMC)).

Turning to `CN(N=O)C(=O)NCCSc1ncnc2nc[nH]c12`, the T/C (T/C endpoint: mean survival time, dose: 750.0 mg/kg/injection, schedule: Q01DX001 (ip), vehicle: carboxymethylcellulose (CMC)) was 129 % of control [8 of 10 alive]. In addition, the survivor count (T/C endpoint: mean survival time, dose: 1000.0 mg/kg/injection, schedule: Q01DX001 (ip), vehicle: carboxymethylcellulose (CMC)) was 2 of 10.

Turning to `CC(=O)NC1=C(N2CC2)C(=O)C(NC(C)=O)=C(N2CC2)C1=O`, the T/C is 129 and 143 % of control (T/C endpoint: mean survival time, dose: 0.5 mg/kg/injection, schedule: Q01DX009 (ip), vehicle: saline); 127 % of control (T/C endpoint: mean survival time, dose: 1.0 mg/kg/injection, schedule: Q01DX009 (ip), vehicle: saline with Tween-80); 132 and 146 % of control (T/C endpoint: mean survival time, dose: 1.0 mg/kg/injection, schedule: Q01DX009 (ip), vehicle: saline); 132 % of control (T/C endpoint: mean survival time, dose: 1.0 mg/kg/injection, schedule: Q01DX Z (ip), vehicle: carboxymethylcellulose (CMC)); 137 % of control (T/C endpoint: mean survival time, dose: 2.0 mg/kg/injection, schedule: Q01DX009 (ip), vehicle: saline with Tween-80). Besides, the survivor count is reported as 10 of 10 (T/C endpoint: mean survival time, dose: 4.0 mg/kg/injection, schedule: Q01DX005 (ip), vehicle: saline with Tween-80); 5 of 6 (T/C endpoint: mean survival time, dose: 4.0 mg/kg/injection, schedule: Q01DX009 (ip), vehicle: saline); 10 of 10 (T/C endpoint: mean survival time, dose: 4.0 mg/kg/injection, schedule: Q01DX Z (ip), vehicle: carboxymethylcellulose (CMC)).

Regarding `N#[N+]c1cnc([O-])[nH]c1=O`, the survivor count runs as follows: (T/C endpoint: mean survival time, dose: 30.0 mg/kg/injection, schedule: Q01DX Z (ip), vehicle: alkali diluted with saline) 6 of 6; (T/C endpoint: mean survival time, dose: 35.0 mg/kg/injection, schedule: Q01DX Z (ip), vehicle: alkali diluted with saline) 5 of 6.

As to `O=P(NC12CC3CC(CC(C3)C1)C2)(N1CC1)N1CC1`, the T/C is 131 % of control (T/C endpoint: mean survival time, dose: 13.3 mg/kg/injection, schedule: Q04DX003 (ip), vehicle: Klucel (hydroxypropylcellulose) (HPC)); 131 % of control (T/C endpoint: mean survival time, dose: 20.0 mg/kg/injection, schedule: Q04DX003 (ip), vehicle: Klucel (hydroxypropylcellulose) (HPC)); 129 % of control (T/C endpoint: mean survival time, dose: 27.0 mg/kg/injection, schedule: Q01DX001 (ip), vehicle: Klucel (hydroxypropylcellulose) (HPC)). Moreover, where the note is “T/C endpoint: mean survival time, dose: 40.0 mg/kg/injection, schedule: Q01DX001 (ip), vehicle: Klucel (hydroxypropylcellulose) (HPC)”, the survivor count is reported as 10 of 10.

Turning to `O=NN(CCCl)C(=O)N[C@@H]1CCC[C@@H](O)C1`, the T/C reads like this: (T/C endpoint: mean survival time, dose: 13.0 mg/kg/injection, schedule: Q01DX001 (ip), vehicle: saline with Tween-80) 140 % of control; (T/C endpoint: mean survival time, dose: 67.0 mg/kg/injection, schedule: Q01DX001 (ip), vehicle: saline with Tween-80) 147 % of control [9 of 10 alive]. Besides, the survivor count is, setting by setting: (T/C endpoint: mean survival time, dose: 100.0 mg/kg/injection, schedule: Q01DX001 (ip), vehicle: saline with Tween-80) 9 of 10; (T/C endpoint: mean survival time, dose: 150.0 mg/kg/injection, schedule: Q01DX001 (ip), vehicle: saline with Tween-80) 7 of 10.
